Measured values reported in patent publication US20080103095A1.
These are yes or no findings as the source states them, for the method shown. For part of these data: In cells and extracts the contact can be indirect. Some entries that bind do so weakly or less than the wild type. Sequences can lack the tags named with a protein.

Amino acid sequences for entries named in this document (tags omitted).
UniProt P14602: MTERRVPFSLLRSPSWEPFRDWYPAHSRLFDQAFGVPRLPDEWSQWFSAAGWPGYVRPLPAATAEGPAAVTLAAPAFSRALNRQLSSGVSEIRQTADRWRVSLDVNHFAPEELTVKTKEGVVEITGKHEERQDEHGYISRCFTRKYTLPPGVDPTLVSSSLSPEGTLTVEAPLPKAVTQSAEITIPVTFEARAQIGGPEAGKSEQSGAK

Tests used:
[1] = target: recombinant murine hsp25 (StressGen Biotechnological Corp) (murine) (UniProt P14602); test: co-immunoprecipitation of purified protein pairs, anti-His blot
[2] = target: recombinant murine hsp25 (StressGen Biotechnological Corp) (murine) (UniProt P14602); test: co-immunoprecipitation of purified protein pairs
[3] = target: recombinant murine hsp25 (StressGen Biotechnological Corp) (murine) (UniProt P14602); test: in vitro, purified proteins

Measured: binding

B1: recombinant His-tagged full-length hsp110 expressed in E. coli (Example 7) (protein, UniProt Q60446 1-858, looked up)
chain: MSVVGLDVGSQSCYIAVARAGGIETIANEFSDRCTPSVISFGPKNRTIGVAAKNQQITHANNTVSSFKRFHGRAFSDPFIQKEKESLSYDLVPMKNGGVGIKVMYMDEEHLFSVEQITAMLLTKLKETAENNLKKPVTDCVISVPSFFTDAERRSVLDAAQIVGLNCLRLMNDMTAVALNYGIYKQDLPNADEKPQGSGVCGHGPSSFQVSACAFNKGKLKVLGTAFDPFLGGKNFDEKLVEHFCAEFKTKYKLDAKSKIRALLRLHQECEKLKKLMSSNSTDLPLNIECFMNDKDVSAKMNRSQFEELCAELLQKIEVPLHSLMEQTHLKTEDVSAIEIVGGATRIPAVKERIAKFFGKDVSTTLNADEAVARGCALQCAILSPAFKVREFSVTDAVPFPISLVWNHDSEETEGVHEVFSRNHAAPFSKVLTFLRRGPFELEAFYSDPQGVPYPEAKIGRFVVQNVSAQKDGEKSKVKVKVRVNTHGIFTISTASMVEKVPTEEDDGSSVEADMECPNQKPAESSDVDKNSQQDNSEAGTQPQVQTDGQQTSQSPPSPELPSEENKIPDADKANEKKVDQPPEAKKPKIKVVNVELPVEANLVWQLGRDLLNMYIETEGKMIMQDKLEKERNDAKNAVEECVYEFRDKLCGPYEKFICQQEHEKFLRLLTETEDWLYEEGEDQAKQAYIDKLEELMKMGNPVKVRFQEAEERPKVLEELGQRLQHYAKIAADFRSKDEKYNHIDESEMKKVEKSVNEVMEWMNNVMNAQAKRSLDQDPVVRTHEIRAKVKELNNVCEPVVNQPKPKIESPKLERTPNGPNLDKKEDLEGKDNFGAEAPHQNGECHPNEKGSVNMDLD
binds: all assays above
